Earlier results on 1 compound are cited in patent publication US6787149B1 (El Khoury and Stein Ltd., priority 2000, dated 2004).

Molecules are shown by their SMILES.

This data set deals with patients who had undergone failed back operations. The conditions noted are these: 1-3 mg on the back; claimed by the authors, questioned by the patent; cited from earlier work.

For the compound `CN1CC[C@]23c4c5ccc(O)c4O[C@H]2[C@@H](O)C=C[C@H]3[C@H]1C5.O=S(=O)(O)O` [Morphine, morphine sulfate], the “Morphine in the systemic circulation” value was “absence of morphine in the systemic circulation”.
